Data published in patent US20150111231A1.
No constants are given. Whether binding was seen depends on the method and setting. Some binding calls cover weakened binding; strength is not graded here.

T1: Fragment4 (SEQ ID No.: 11)
T1 sequence (peptide): TTRPGSGLTN

B1: Fragment4 (SEQ ID No.: 11) (peptide)
peptide: TTRPGSGLTN
B2: anti-internal structure antibody 5H10 (antibody, IgG1, V domains shown)
VH: QVQLQQSGTELAKPGASVKMSCKASGYTFIDYWMHWIKQSPGQGLEWIGFINPRSGSTTYNQKFRDKATLTVDTSSSTAYMQLTSLTSEDSAVYYCTRPDFDYFDYWGQGTTLTVSS
VL: DVLMTQTPLSLPVSLGDHASISCRSSQSIVQSNGNTYLEWYLQKPGQSPKLLIYKVSNRFSGVPDRFSGSGSGTDFTLKISSVEAEDLGIYYCFQASHVPLTFGAGTKLELKR

What was measured:
[1] = biological target: anti-internal structure antibody 5H10; test: competitive ELISA of 5H10, unlabelled peptide varied against the biotinylated internal structural peptide
[2] = biological target: T1, Fragment4 (SEQ ID No.: 11); test: competitive ELISA with fragment peptides 1-4 (FIG. 5)

Binder	binding [1]	binding [2]
B1	binds	–
B2	–	binds
